In article PMC12084419:
No constants are given. Whether binding was seen depends on the method and setting. In cells and extracts the contact can be indirect. Some results given as binding are weak or reduced against the parent protein; the word gives no strength. Sequences can lack the tags named with a protein. Each block holds one molecule with its values, some of them ahead of it.

Protein sequences, listed by entry. Tags and fused reporters are not part of them.
UniProt Q9UHP3: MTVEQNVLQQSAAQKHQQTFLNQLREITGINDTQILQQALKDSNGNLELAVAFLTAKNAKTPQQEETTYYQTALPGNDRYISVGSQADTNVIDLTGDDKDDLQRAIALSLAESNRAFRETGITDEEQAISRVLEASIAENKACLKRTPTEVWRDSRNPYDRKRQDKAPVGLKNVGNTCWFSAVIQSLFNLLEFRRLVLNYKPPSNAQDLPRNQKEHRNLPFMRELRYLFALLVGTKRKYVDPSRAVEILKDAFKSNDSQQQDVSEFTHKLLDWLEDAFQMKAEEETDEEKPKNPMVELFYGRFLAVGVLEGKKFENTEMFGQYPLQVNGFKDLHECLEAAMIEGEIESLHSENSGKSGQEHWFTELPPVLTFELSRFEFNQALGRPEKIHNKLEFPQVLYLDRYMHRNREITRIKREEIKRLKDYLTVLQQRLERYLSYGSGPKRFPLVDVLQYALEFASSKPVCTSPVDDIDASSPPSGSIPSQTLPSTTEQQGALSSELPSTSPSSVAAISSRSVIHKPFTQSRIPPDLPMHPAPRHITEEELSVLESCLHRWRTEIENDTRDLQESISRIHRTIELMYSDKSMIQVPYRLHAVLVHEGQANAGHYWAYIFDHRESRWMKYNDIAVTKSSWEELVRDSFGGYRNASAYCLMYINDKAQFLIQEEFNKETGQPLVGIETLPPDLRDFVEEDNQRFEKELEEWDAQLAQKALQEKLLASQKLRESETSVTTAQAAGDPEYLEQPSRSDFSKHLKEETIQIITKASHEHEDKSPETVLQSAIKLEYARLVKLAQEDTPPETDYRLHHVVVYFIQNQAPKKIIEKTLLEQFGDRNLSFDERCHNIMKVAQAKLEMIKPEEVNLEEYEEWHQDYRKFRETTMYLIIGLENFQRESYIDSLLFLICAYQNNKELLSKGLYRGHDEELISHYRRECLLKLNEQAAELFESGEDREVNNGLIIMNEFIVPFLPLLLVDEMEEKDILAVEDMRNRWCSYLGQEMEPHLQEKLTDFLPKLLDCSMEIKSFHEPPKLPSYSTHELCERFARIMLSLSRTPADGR

Experiments:
[1] = molecular target: T1, Flag-KIFC1 (Kinesin Family Member C1, Flag-tagged) (UniProt Q9BW19); test: co-IP; HA-USP25, Flag-KIFC1 and His-MYCBP together; co-immunoprecipitation with antibodies to the tags (three panels); cells and bait of each panel not stated
T1 sequence: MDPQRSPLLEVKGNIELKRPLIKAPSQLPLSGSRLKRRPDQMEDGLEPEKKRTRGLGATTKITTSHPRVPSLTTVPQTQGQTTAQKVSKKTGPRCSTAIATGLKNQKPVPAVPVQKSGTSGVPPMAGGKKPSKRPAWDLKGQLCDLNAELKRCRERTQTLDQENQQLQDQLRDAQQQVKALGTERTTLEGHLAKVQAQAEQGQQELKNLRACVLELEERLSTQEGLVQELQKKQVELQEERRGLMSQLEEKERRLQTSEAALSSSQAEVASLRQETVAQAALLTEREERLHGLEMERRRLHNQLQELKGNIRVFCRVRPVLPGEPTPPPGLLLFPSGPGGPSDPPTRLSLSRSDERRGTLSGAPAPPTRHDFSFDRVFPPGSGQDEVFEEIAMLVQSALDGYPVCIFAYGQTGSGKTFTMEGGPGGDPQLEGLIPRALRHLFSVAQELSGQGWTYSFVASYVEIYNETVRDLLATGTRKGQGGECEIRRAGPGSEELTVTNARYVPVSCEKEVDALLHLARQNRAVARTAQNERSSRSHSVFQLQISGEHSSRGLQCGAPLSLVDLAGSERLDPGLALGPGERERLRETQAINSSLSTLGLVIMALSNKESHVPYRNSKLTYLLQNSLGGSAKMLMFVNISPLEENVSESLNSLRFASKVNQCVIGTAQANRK

[2] = molecular target: T1, Flag-KIFC1 (Kinesin Family Member C1, Flag-tagged); test: co-IP; Flag-KIFC1 and an HA-tagged partner exogenously co-expressed in HeLa and SiHa cells; NP-40 lysis buffer; anti-Flag affinity gel overnight at 4 °C; immunoblot
[3] = molecular target: T2, KIFC1 of the Nanoluc luciferase assay (UniProt Q9BW19); test: split reporter; Nanoluc luciferase assay in HeLa cells; KIFC1 against 40 genes of the USP family; relative chemiluminescence intensity
T2 sequence: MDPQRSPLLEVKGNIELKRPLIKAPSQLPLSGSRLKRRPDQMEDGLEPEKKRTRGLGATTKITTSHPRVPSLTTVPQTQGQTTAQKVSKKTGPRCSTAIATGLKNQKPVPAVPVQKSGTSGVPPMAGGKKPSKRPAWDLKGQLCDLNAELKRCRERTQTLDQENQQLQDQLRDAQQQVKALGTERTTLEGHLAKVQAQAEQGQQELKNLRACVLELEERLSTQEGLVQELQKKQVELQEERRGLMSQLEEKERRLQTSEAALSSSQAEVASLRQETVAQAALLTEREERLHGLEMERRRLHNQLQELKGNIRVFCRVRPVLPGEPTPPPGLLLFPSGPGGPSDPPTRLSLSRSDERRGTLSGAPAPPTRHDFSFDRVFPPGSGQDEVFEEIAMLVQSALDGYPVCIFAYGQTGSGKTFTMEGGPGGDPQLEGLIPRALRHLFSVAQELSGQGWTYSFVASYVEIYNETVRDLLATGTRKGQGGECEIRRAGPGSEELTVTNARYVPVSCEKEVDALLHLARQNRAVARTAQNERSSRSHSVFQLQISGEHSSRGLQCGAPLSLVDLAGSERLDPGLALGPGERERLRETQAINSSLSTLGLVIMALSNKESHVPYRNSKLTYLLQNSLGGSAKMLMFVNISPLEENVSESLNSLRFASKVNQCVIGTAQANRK

[4] = molecular target: T1, Flag-KIFC1 (Kinesin Family Member C1, Flag-tagged); test: co-IP; Flag-KIFC1 and an HA-tagged partner exogenously co-expressed in HeLa and SiHa cells; NP-40 lysis buffer; anti-Flag affinity gel overnight at 4 °C; immunoblot; remark: listed apart in the source
GST-USP25 = GST-USP25 (UniProt Q9UHP3); test: pull-down; GST-USP25 and His-KIFC1 co-transformed into E. coli BL21 (DE3); bacterial lysate (50 mM Tris-HCl pH 7.4, 150 mM NaCl, 1 mM EDTA, 1% Triton X-100) on Glutathione Sepharose 4B beads, 4 °C, 3 h; anti-His and anti-GST immunoblot

- binding [1]: binds
- binding [2]: binds
Molecule: HA-USP25 (from UniProt Q9UHP3 1-1055) (enzyme)

- binding [3]: binds
Molecule: USP25 of the Nanoluc luciferase assay (from UniProt Q9UHP3 1-1055) (enzyme)

- binding [3]: binds
B1: USP52 of the Nanoluc luciferase assay (enzyme, UniProt Q504Q3 1-1202)
chain: MNFEGLDPGLAEYAPAMHSALDPVLDAHLNPSLLQNVELDPEGVALEALPVQESVHIMEGVYSELHSVVAEVGVPVSVSHFDLHEEMLWVGSHGGHATSFFGPALERYSSFQVNGSDDIRQIQSLENGILFLTKNNLKYMARGGLIIFDYLLDENEDMHSLLLTDSSTLLVGGLQNHIIEIDLNTVQETQKYAVETPGVTIMRQTNRFFFCGHTSGKVSLRDLRTFKVEHEFDAFSGSLSDFDVHGNLLAACGFSSRLTGLACDRFLKVYDLRMMRAITPLQVHVDPAFLRFIPTYTSRLAIISQSGQCQFCEPTGLANPADIFHVNPVGPLLMTFDVSASKQALAFGDSEGCVHLWTDSPEPSFNPYSRETEFALPCLVDSLPPLDWSQDLLPLSLIPVPLTTDTLLSDWPAANSAPAPRRAPPVDAEILRTMKKVGFIGYAPNPRTRLRNQIPYRLKESDSEFDSFSQVTESPVGREEEPHLHMVSKKYRKVTIKYSKLGLEDFDFKHYNKTLFAGLEPHIPNAYCNCMIQVLYFLEPVRCLIQNHLCQKEFCLACELGFLFHMLDLSRGDPCQGNNFLRAFRTIPEASALGLILADSDEASGKGNLARLIQRWNRFILTQLHQDMQELEIPQAYRGAGGSSFCSSGDSVIGQLFSCEMENCSLCRCGSETVRASSTLLFTLSYPDGSKSDKTGKNYDFAQVLKRSICLDQNTQAWCDTCEKYQPTIQTRNIRHLPDILVINCEVNSSKEADFWRMQAEVAFKMAVKKHGGEISKNKEFALADWKELGSPEGVLVCPSIEELKNVWLPFSIRMKMTKNKGLDVCNWTDGDEMQWGPARAEEEHGVYVYDLMATVVHILDSRTGGSLVAHIKVGETYHQRKEGVTHQQWYLFNDFLIEPIDKHEAVQFDMNWKVPAILYYVKRNLNSRYNLNIKNPIEASVLLAEASLARKQRKTHTTFIPLMLNEMPQIGDLVGLDAEFVTLNEEEAELRSDGTKSTIKPSQMSVARITCVRGQGPNEGIPFIDDYISTQEQVVDYLTQYSGIKPGDLDAKISSKHLTTLKSTYLKLRFLIDIGVKFVGHGLQKDFRVINLMVPKDQVLDTVYLFHMPRKRMISLRFLAWYFLDLKIQGETHDSIEDARTALQLYRKYLELSKNGTEPESFHKVLKGLYEKGRKMDWKVPEPEGQTSPKNAAVFSSVLAL

- binding [4]: binds
B2: HA-MYCBP (protein, UniProt Q99417 1-103)
chain: MAHYKAADSKREQFRRYLEKSGVLDTLTKVLVALYEEPEKPNSALDFLKHHLGAATPENPEIELLRLELAEMKEKYEAIVEENKKLKAKLAQYEPPQEEKRAE

- binding [1]: binds
B3: His-MYCBP (protein, UniProt Q99417 1-103)
chain: MAHYKAADSKREQFRRYLEKSGVLDTLTKVLVALYEEPEKPNSALDFLKHHLGAATPENPEIELLRLELAEMKEKYEAIVEENKKLKAKLAQYEPPQEEKRAE

- binding [3]: binds
B4: USP29 of the Nanoluc luciferase assay (enzyme, UniProt Q9HBJ7 1-922)
chain: MISLKVCGFIQIWSQKTGMTKLKEALIETVQRQKEIKLVVTFKSGKFIRIFQLSNNIRSVVLRHCKKRQSHLRLTLKNNVFLFIDKLSYRDAKQLNMFLDIIHQNKSQQPMKSDDDWSVFESRNMLKEIDKTSFYSICNKPSYQKMPLFMSKSPTHVKKGILENQGGKGQNTLSSDVQTNEDILKEDNPVPNKKYKTDSLKYIQSNRKNPSSLEDLEKDRDLKLGPSFNTNCNGNPNLDETVLATQTLNAKNGLTSPLEPEHSQGDPRCNKAQVPLDSHSQQLQQGFPNLGNTCYMNAVLQSLFAIPSFADDLLTQGVPWEYIPFEALIMTLTQLLALKDFCSTKIKRELLGNVKKVISAVAEIFSGNMQNDAHEFLGQCLDQLKEDMEKLNATLNTGKECGDENSSPQMHVGSAATKVFVCPVVANFEFELQLSLICKACGHAVLKVEPNNYLSINLHQETKPLPLSIQNSLDLFFKEEELEYNCQMCKQKSCVARHTFSRLSRVLIIHLKRYSFNNAWLLVKNNEQVYIPKSLSLSSYCNESTKPPLPLSSSAPVGKCEVLEVSQEMISEINSPLTPSMKLTSESSDSLVLPVEPDKNADLQRFQRDCGDASQEQHQRDLENGSALESELVHFRDRAIGEKELPVADSLMDQGDISLPVMYEDGGKLISSPDTRLVEVHLQEVPQHPELQKYEKTNTFVEFNFDSVTESTNGFYDCKENRIPEGSQGMAEQLQQCIEESIIDEFLQQAPPPGVRKLDAQEHTEETLNQSTELRLQKADLNHLGALGSDNPGNKNILDAENTRGEAKELTRNVKMGDPLQAYRLISVVSHIGSSPNSGHYISDVYDFQKQAWFTYNDLCVSEISETKMQEARLHSGYIFFYMHNGIFEELLRKAENSRLPSTQAGVIPQGEYEGDSLYRPA

- binding (GST-USP25): binds
B5: His-KIFC1 (protein, UniProt Q9BW19 1-673)
chain: MDPQRSPLLEVKGNIELKRPLIKAPSQLPLSGSRLKRRPDQMEDGLEPEKKRTRGLGATTKITTSHPRVPSLTTVPQTQGQTTAQKVSKKTGPRCSTAIATGLKNQKPVPAVPVQKSGTSGVPPMAGGKKPSKRPAWDLKGQLCDLNAELKRCRERTQTLDQENQQLQDQLRDAQQQVKALGTERTTLEGHLAKVQAQAEQGQQELKNLRACVLELEERLSTQEGLVQELQKKQVELQEERRGLMSQLEEKERRLQTSEAALSSSQAEVASLRQETVAQAALLTEREERLHGLEMERRRLHNQLQELKGNIRVFCRVRPVLPGEPTPPPGLLLFPSGPGGPSDPPTRLSLSRSDERRGTLSGAPAPPTRHDFSFDRVFPPGSGQDEVFEEIAMLVQSALDGYPVCIFAYGQTGSGKTFTMEGGPGGDPQLEGLIPRALRHLFSVAQELSGQGWTYSFVASYVEIYNETVRDLLATGTRKGQGGECEIRRAGPGSEELTVTNARYVPVSCEKEVDALLHLARQNRAVARTAQNERSSRSHSVFQLQISGEHSSRGLQCGAPLSLVDLAGSERLDPGLALGPGERERLRETQAINSSLSTLGLVIMALSNKESHVPYRNSKLTYLLQNSLGGSAKMLMFVNISPLEENVSESLNSLRFASKVNQCVIGTAQANRK
